The whole screen tested about 340,000 compounds, of which about 170 (0.05%) were called active. Inconclusive results, whose numbers are uncertain, are shown with a selection of clear calls. Calls follow the shape of the dose curve; as a rule, active = well fitted inhibition curve with a large enough effect in the signal ratio, with a control signal flat (not every such curve was filed as active); inconclusive = small, poorly fitted or top-dose-only effect, or effect the other way, or a change in a side signal; inactive = flat fitted curve, though single readings scatter; the % refers to the signal ratio. Potencies of inconclusive entries are doubtful fits and often do not repeat.
Assay: qHTS Assay to Find Inhibitors of Chronic Active B-Cell Receptor Signaling;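 as to activity change, negative = inhibition: plate controls were basal doxycycline-induced cells for no effect and cells given 10 µM MG132 for full effect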
Conditions: ABC-DLBCL IkBa-CBG/CBR reporter, luminescence ratio (green luciferase fused to IkBa over red control in TMD8 lymphoma cells), 4 h; activity change, negative = inhibition: at 46.1 µM (top of the series)
How it was run: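 TMD8 human ABC-DLBCL cells with doxycycline-inducible IκBα–green luciferase fusion and unfused red luciferase, in 0.5% FBS medium; compounds up to 46 uM, 4 h at 37C. Green/red luminescence ratio, filter-overlap corrected, fitted to concentration-response curves.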
Potency is read from the fitted curve at half-maximal effect.

Row | SMILES | activity change, negative = inhibition | Potency
1 | COc1ccccc1NC(=S)N(Cc1ccco1)Cc1cc2ccc(C)c(C)c2[nH]c1=O | inconclusive: -10.4% | –
2 | COc1ccc(C(=O)CSc2nnc(Cn3nnc4ccccc43)n2C)cc1 | inconclusive: 21.6% | –
3 | Cc1cc2cc(C#N)c(SCC(=O)Nc3nonc3C)nc2cc1C | inconclusive: 15.5% | –
4 | Cc1cc(SCC(=O)NCC2CCCO2)nc2ccccc12 (stereo unspecified) | inactive: -3.29% | –
5 | N#CCCN(Cc1ccccc1)C(=S)Nc1ccccc1 | inactive: 0.248% | –
6 | O=C(Nc1ccc(Cc2ccncc2)cc1)c1cccc([N+](=O)[O-])c1 | inactive: -1.73% | –
7 | CCCN1CCN(CCCNC(=O)CN2C(=O)COc3ccccc32)CC1 | inconclusive: 13.3% | –
8 | CC1CCc2c(sc(/N=C/N(C)C)c2C#N)C1 (stereo unspecified) | – | inconclusive: 15.8 µM [falling, partial curve]
9 | CCOC(=O)c1ccccc1NC(=O)COC(=O)C(CC(C)C)NC(N)=O (stereo unspecified) | inactive: 1.09% | –
10 | C=CCn1c2ccccc2c(=O)c2cc(C#CC3(O)CCCCC3)ccc21 | – | inconclusive: 0.501 µM [rising, full curve]
11 | CCOC(=O)C(C)n1nc(C)c2sc3ccccc3c2c1=O (stereo unspecified) | inconclusive: 0.803% | –
12 | Cc1ccc(Cn2ncc3c(NCCCN(C)C)ncnc32)cc1 | inconclusive: 2.07% | –
13 | CCOC(=O)C1=C(C)NC(=O)NC1c1cc(Br)c(O)c(OC)c1 (stereo unspecified) | inconclusive: 3.06% | –
14 | COc1ccc(C)cc1N(CC(=O)NC1CCCC1)C(=O)CCC(=O)Nc1nc(C)cs1 | inconclusive: -8.14% | –
15 | C[C@H]1COC(=O)[C@H](CC(=O)OC(C)(C)C)C/C=C\C[C@@H](CC(=O)N[C@@H](CO)Cc2ccccc2)C(=O)N1 | inconclusive: -2.4% | –
16 | COc1ccc(CNC(=O)CN(Cc2ccccc2Cl)C(=O)c2csnn2)cc1 | inconclusive: -0.368% | –
17 | COc1ccc(-n2ncc3c(N4CCCCC4)ncnc32)cc1 | – | inconclusive: 23.1 µM [falling, single point]
18 | O=C(COC(=O)c1ccccc1NCCO)Nc1cc(C(F)(F)F)ccc1N1CCOCC1 | inactive: -1.47% | –
19 | COc1ccc(CNC(=O)c2cnn(-c3ccc(C)cc3)c2-n2cccc2)cc1OC | inconclusive: -6.4% | –
20 | COc1ccc(C(C(=O)NC(C)(C)C)N(C(=O)CCC(=O)Nc2cc(C)on2)c2ccc(C)c(C)c2)cc1 (stereo unspecified) | inactive: 5.14% | –
21 | COc1cc(NC(=O)CSc2nc(C)cs2)cc(OC)c1 | inconclusive: 0.59% | –

Two of these compounds, set out differently.
Row,SMILES,"activity change, negative = inhibition",Potency
4,Cc1cc(SCC(=O)NCC2CCCO2)nc2ccccc12 (stereo unspecified),inactive: -3.29%,–
17,COc1ccc(-n2ncc3c(N4CCCCC4)ncnc32)cc1,–,"inconclusive: 23.1 µM [falling, single point]"

(list continues)

Row | SMILES | activity change, negative = inhibition | Potency
22 | CC1=NNC(=O)C1CCC(=O)N/N=C/C(Br)=C/c1ccccc1 (stereo unspecified) | – | inconclusive: 18.4 µM [falling, single point]
23 | O=C(O)c1ccc(Cn2c(SCc3cc(=O)n4cc(Br)ccc4n3)nc3ccsc3c2=O)cc1 | inactive: 2.31% | –
24 | Cc1cc2cc(CCNC(=O)c3cccs3)c(=O)[nH]c2cc1C | inconclusive: -0.0649% | –
25 | COc1cc(CNC2CCCCC2)c(Br)cc1OC1CCCC1 | inconclusive: 0.4% | –
26 | S=c1[nH]nc(C2CCCCC2)n1/N=C/c1ccccc1Br | inconclusive: 4.54% | –
27 | Cc1sc(-c2ccncc2)nc1OC(=O)c1ccccc1 | – | inconclusive: 16.4 µM [falling, partial curve]
28 | CCOc1ccc(NC(=S)NC(C)C(c2ccccc2)N2CCN(C)CC2)cc1 (stereo unspecified) | inconclusive: -16% | –
29 | O=C(Nc1cccc(Cl)c1)Nc1csc([N+](=O)[O-])c1 | – | inconclusive: 1.58 µM [rising, full curve, poor fit]
30 | CC1=NC(Nc2nc(C)c3ccccc3n2)=NC(C)(C)C1 | inactive: 0.361% | –
31 | O=C(Nc1ccc(CN2CCOCC2)cc1)c1ccc(-c2ccc(Br)cc2)o1 | inconclusive: 2.33% | –
32 | COc1ccc(NC(=S)Nc2ccccn2)c(OC)c1 | inconclusive: -18.9% | –
33 | COCCNC(=S)NCCCNc1nc2cc3c(cc2cc1C#N)OCO3 | inactive: 1.38% | –
34 | Cc1ccc(CNC(=O)c2cc(C3CC3)nc3c2cnn3C(C)C)cc1 | inconclusive: -10.2% | –
35 | COc1cccc(CN2C(=O)CN(C3CCCCC3)C(=O)C2c2ccc(OC)c(OC)c2)c1 (stereo unspecified) | inactive: -17.4% | –
36 | O=C(NC(=S)N1CCc2ccccc21)c1ccc(Br)o1 | inconclusive: -0.81% | –
37 | O=S(=O)(Cc1ccccc1)N=Nc1c(O)[nH]c2ccc(Br)cc12 | – | inconclusive: 22.4 µM [falling, single point]
38 | COc1ccc(NS(=O)(=O)c2ccc(NC(C)=O)cc2)c(OC)c1 | inconclusive: -15% | –
39 | COC(C[C@@H](O)C[C@H](O)[C@@H](C)OCc1ccccc1)OC | inconclusive: 0.31% | –
40 | CCc1cc(=O)[nH]c(SCc2ccc(C)cc2)n1 | – | inconclusive: 28.2 µM [falling, single point]
41 | CCCCOc1ccccc1C1NC(=O)CCC1[N+](=O)[O-] (stereo unspecified) | inconclusive: -3.55% | –
42 | Cc1ccc(C)c(OCc2cc(C(=O)N3CCc4sccc4C3)no2)c1 | inactive: -2.01% | –

Rewritten as tab-separated lines: part of the list above.
Row	SMILES	activity change, negative = inhibition	Potency
22	CC1=NNC(=O)C1CCC(=O)N/N=C/C(Br)=C/c1ccccc1 (stereo unspecified)	–	inconclusive: 18.4 µM [falling, single point]
27	Cc1sc(-c2ccncc2)nc1OC(=O)c1ccccc1	–	inconclusive: 16.4 µM [falling, partial curve]
38	COc1ccc(NS(=O)(=O)c2ccc(NC(C)=O)cc2)c(OC)c1	inconclusive: -15%	–

(further entries)

Row | SMILES | activity change, negative = inhibition | Potency
43 | Cc1c(OCC(=O)NCCCN2CCCC2=O)ccc2c3c(c(=O)oc12)CCCC3 | inconclusive: 6.31% | –
44 | CN(C(=O)c1cccc(N2C(=O)C3CC=CCC3C2=O)c1)C1CCCCC1 (stereo unspecified) | inconclusive: -1.11% | –
45 | CCn1c(SCC(=O)Nc2ccc(OC)c(OC)c2)nnc1-c1cccs1 | inconclusive: 2.46% | –
46 | COc1ccc(C(=O)c2coc3ccc(OC(C)=O)cc23)cc1 | inconclusive: 1.39% | –
47 | CCOC(=O)c1c(C)n(C)c2ccc(OC)c(NC(=O)CN3CCCCC3)c12 | inconclusive: -24.1% | –
48 | O=[N+]([O-])c1cccc(N/N=C/c2ccc(N3CCOCC3)cc2)c1 | inconclusive: 16.3% | –
49 | CC[C@]1(C(=O)OC)[C@H]2C(=O)N(C)C(=O)[C@H]2[C@H]2CN=C(SCc3ccc(C(=O)OC)cc3)N21 | inconclusive: -2.44% | –
50 | COc1ccc2c(c1OC)C(=O)N(c1ccc(O)cc1)C2 | – | inconclusive: 17.8 µM [falling, partial curve, poor fit]
51 | CCC(C)NC(=O)[C@H](CSCc1ccccc1)N1Cc2ccccc2C1=O (stereo partly specified) | inconclusive: 1.23% | –
52 | O=[N+]([O-])c1cc(/C=N\Nc2nc(-c3ccccc3)cs2)ccc1O | inconclusive: 17.1% | –
53 | c1ccc2nc3c(nc2c1)c1ccccc1n3CCN1CCOCC1 | – | inconclusive: 5.8 µM [rising, full curve, poor fit]
54 | COc1ccc(CCN(C)Cc2c(O)ccc3ccccc23)cc1OC | inconclusive: -18.8% | –
55 | COc1ccccc1CC(=O)Nc1ccc2nc(C)sc2c1 | – | inconclusive: 23.1 µM [falling, partial curve]
56 | CCCCc1c(C)c(C#N)c2nc3ccccc3n2c1Cl | – | inconclusive: 0.517 µM [falling, full curve, poor fit]
57 | CSCCC(NS(=O)(=O)/C=C/c1ccccc1)C(=O)NCCc1ccc(S(N)(=O)=O)cc1 (stereo unspecified) | inconclusive: -7.17% | –
58 | Cc1ccsc1C(=O)OCC(=O)c1cc(C)n(CC2CCCO2)c1C (stereo unspecified) | – | inconclusive: 0.355 µM [falling, full curve, poor fit]
59 | Cc1oc(-c2ccccc2)nc1CS(=O)CC(=O)NC1CCCCCC1 (stereo unspecified) | inconclusive: -19.4% | –
60 | Cc1cc(C(=O)Nc2ccc(N3CCCC3)c(Cl)c2)ccc1[N+](=O)[O-] | inactive: 6.12% | –
61 | Cc1ccc(NC(=O)C(=S)NCc2ccco2)cc1 | inconclusive: 7.39% | –
62 | O=C1c2ccccc2C(Nc2ccc3c(c2)OCCO3)N1Cc1ccco1 (stereo unspecified) | inconclusive: -2.58% | –
63 | CCCCn1c(-c2ccccc2)nnc1-c1ccccc1 | inconclusive: 13.7% | –

Row | SMILES | activity change, negative = inhibition | Potency
64 | Cc1nc(CS(=O)(=O)c2ccccn2)sc1C(=O)NNC(=O)c1ccccc1 | – | inconclusive: 17.8 µM [falling, partial curve]
65 | COc1ccc(S(=O)(=O)NCc2ccccn2)cc1NC(=O)c1ccccc1C | – | inconclusive: 8.2 µM [falling, partial curve]
66 | COc1cc(CNc2ccc(N3CCCCC3)cc2)ccc1OCC(=O)NC(C)(C)C | inactive: 0.196% | –
67 | Oc1ccc(/C=N/n2c(-c3ccco3)csc2=Nc2cccnc2)c(O)c1 | inconclusive: -17.4% | –
68 | CN(C)c1ccc(/C=C/C(O)=C2/C(=O)N(C)C3(C)CC2c2ccccc2O3)cc1 (stereo unspecified) | inconclusive: 2.5% | –
69 | CCCCCCNC(=O)N[C@@H](C(=O)NCCC[C@H]1CN2C(=NC[C@@H]2Cc2ccccc2)N1CCc1cccc(OC)c1)C(C)C | – | inconclusive: 22.4 µM [falling, single point]
70 | O=C(Nc1ccc(N2CCOCC2)c(Cl)c1)c1ccccc1F | – | inconclusive: 16.4 µM [falling, partial curve]
71 | NNC(=O)c1ccc(N2CCCCCC2)c([N+](=O)[O-])c1 | – | inconclusive: 20 µM [falling, partial curve]
72 | Cc1sc(NC(=O)C2=COCCO2)nc1-c1ccc(Cl)cc1 | inconclusive: 2.82% | –
73 | COc1ccccc1NC(=O)Nc1nnc(CC(=O)Nc2cccc(C)c2)s1 | – | inconclusive: 12.6 µM [falling, partial curve]
74 | COc1ccc(Nc2cc(Nc3cccc(OC)c3)ncn2)cc1 | inconclusive: -15.3% | –
75 | CC(=O)Nc1ccc(S(=O)(=O)Oc2ccc(/C=C3\SC(N)=NC3=O)cc2)cc1 | inconclusive: 2.98% | –
76 | Cc1ccccc1-n1c([C@@H]2C[C@H]2c2ccccc2)n[nH]c1=S | inconclusive: -28.6% | –
77 | CC(=O)c1ccc(N2CCN(Cc3nc(Cc4ccccc4)no3)CC2)cc1 | inactive: -1% | –
78 | O=C(CSc1cccc2cccnc12)Nc1ccc(S(=O)(=O)N2CCOCC2)cc1 | inconclusive: 23.8% | –
79 | O=C(NCc1ccon1)C1CCC(=O)N(CCc2ccc(Cl)cc2)C1 (stereo unspecified) | inconclusive: 4.28% | –
80 | COc1cccc(NC(=O)c2ccc(CN3CCOCC3)cc2)c1 | inconclusive: -13% | –
81 | CCOc1ccc(OCCC(=O)N(CC)CC(=O)NCc2ccc(Cl)cc2)cc1 | inactive: -3.32% | –

Source: PubChem BioAssay AID493014 (National Center for Advancing Translational Sciences (NCATS), 2011)
